Laboratory results published in PMC12196856.
The exact form of at least one protein or probe is not confirmed.

Assays:
[1] = test system: LpBLH3 (Lilium pumilum); experiment: competition with a labelled probe; conditions: competes against biotin-labeled N1; BeyoGold Chemiluminescent EMSA Kit (Beyotime), manufacturer's protocol; recombinant protein; protein details: His (pET21a)
[2] = test system: LpBLH3 (Lilium pumilum); experiment: EMSA; conditions: BeyoGold Chemiluminescent EMSA Kit (Beyotime), manufacturer's protocol; recombinant protein; protein details: His (pET21a); label: 5' biotin

Sequence	binding result [1]	binding result [2]
TGAAAACATGGACGATTATATACCTCCATTTGTCAAATTG (double strand) [LpABI5-TGGA unlabeled competitor]	binds	
TGAAAACATGGACGATTATATACCTCCATTTGTCAAATTG (double strand) [LpABI5-TGGA probe]		binds
